Reference: patent US6716837B1, “Heterocyclic compounds for the treatment of migraine” (NPS Allelix Biopharmaceuticals, Inc., priority 1999, dated 2004)
Some results were stated once for a whole list of compounds, not compound by compound. For at least one compound, name, drawing or mass did not settle the structure.

Amino acid sequences for entries named in this document (tags omitted). A change or cut given only in a name is not applied to a line headed by its entry.
UniProt P28221: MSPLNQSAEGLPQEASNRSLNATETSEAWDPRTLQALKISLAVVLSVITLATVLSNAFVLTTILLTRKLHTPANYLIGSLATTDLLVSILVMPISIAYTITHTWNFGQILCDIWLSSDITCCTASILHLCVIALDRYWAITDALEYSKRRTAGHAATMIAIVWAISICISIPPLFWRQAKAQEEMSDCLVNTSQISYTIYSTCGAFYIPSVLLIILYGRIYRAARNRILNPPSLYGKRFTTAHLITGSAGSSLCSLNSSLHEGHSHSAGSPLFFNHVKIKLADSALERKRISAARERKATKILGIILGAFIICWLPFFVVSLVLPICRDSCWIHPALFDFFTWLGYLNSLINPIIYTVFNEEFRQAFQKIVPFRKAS
UniProt P28222, whole entry: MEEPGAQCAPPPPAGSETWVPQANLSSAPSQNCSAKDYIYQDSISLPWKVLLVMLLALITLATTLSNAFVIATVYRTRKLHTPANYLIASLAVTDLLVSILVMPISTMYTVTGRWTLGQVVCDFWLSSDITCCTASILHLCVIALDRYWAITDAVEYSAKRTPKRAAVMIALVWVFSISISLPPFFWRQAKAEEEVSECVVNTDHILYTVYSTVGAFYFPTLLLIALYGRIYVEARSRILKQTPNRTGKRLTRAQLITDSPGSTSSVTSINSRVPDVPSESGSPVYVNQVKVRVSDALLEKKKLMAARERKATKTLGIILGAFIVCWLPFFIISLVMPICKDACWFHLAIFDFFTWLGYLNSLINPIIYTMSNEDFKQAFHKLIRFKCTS

Columns and labels:
5-HT1D receptor = target: T1, 5-HT1D receptor (Homo sapiens, UniProt P28221); test: 5-HT1D receptor binding, inhibition of 3H-serotonin binding; conditions: 100 nM test compound; 3H-serotonin 1 nM; membranes from recombinant cells; 60 minute incubation at 22° C.
T1 construct: expressed in transfected cells
Procedure: Selected compounds of the previous examples, as well as reference compounds, were evaluated for binding affinity using cell types receptive specifically to 5-HT1D and 5-HT1B ligands. The assay protocol generally entailed the incubation of membranes prepared from cells expressing the 5-HT1D or 5-HT1B subtype of 5-HT receptors with ^3H-serotonin (1 nM for 5-HT1D and 2.5 nM for 5-HT1B). Specific concentrations of the test compound were incubated with the radio ligand and the membrane homogenates prepared from the recombinant cells. After a 60 minute incubation at 22° C., the incubation was terminated by vacuum filtration. The filters were washed with buffer and counted for radioactivity using liquid scintillation spectroscopy. The affinity of the test compound for the 5-HT1D receptor is expressed as the amount (in percent) of binding of the radio ligand that is inhibited in the presence of 100 nM of test compound. A greater percent inhibition indicates greater affinity for the 5-HT1D receptor.

5-HT1B receptor = target: T2, 5-HT1B receptor (Homo sapiens, UniProt P28222); test: 5-HT1B receptor binding, inhibition of 3H-serotonin binding; conditions: 3H-serotonin 2.5 nM; membranes from recombinant cells; 60 minute incubation at 22° C.; 100 nM stated only for 5-HT1D
T2 construct: expressed in transfected cells

Question: With `CN1CCN(c2ccc3ccn(-c4ccc(F)cc4)c3c2)CC1` [Example 30a, 1-(4-Fluorophenyl)-6-(4-methylpiperazinyl)-indole] as the compound, how does the “percent inhibition of binding of the radio ligand at the 5-HT1D receptor” value (5-HT1D receptor) read?
Answer: greater than 75%

Question: And the “percent inhibition at the 5-HT1B receptor” value (5-HT1B receptor)?
Answer: < 50%
